These results are taken from article PMC7850971.

Chains of the proteins cited; added tags and fusions are not shown.
UniProt Q8NEB9: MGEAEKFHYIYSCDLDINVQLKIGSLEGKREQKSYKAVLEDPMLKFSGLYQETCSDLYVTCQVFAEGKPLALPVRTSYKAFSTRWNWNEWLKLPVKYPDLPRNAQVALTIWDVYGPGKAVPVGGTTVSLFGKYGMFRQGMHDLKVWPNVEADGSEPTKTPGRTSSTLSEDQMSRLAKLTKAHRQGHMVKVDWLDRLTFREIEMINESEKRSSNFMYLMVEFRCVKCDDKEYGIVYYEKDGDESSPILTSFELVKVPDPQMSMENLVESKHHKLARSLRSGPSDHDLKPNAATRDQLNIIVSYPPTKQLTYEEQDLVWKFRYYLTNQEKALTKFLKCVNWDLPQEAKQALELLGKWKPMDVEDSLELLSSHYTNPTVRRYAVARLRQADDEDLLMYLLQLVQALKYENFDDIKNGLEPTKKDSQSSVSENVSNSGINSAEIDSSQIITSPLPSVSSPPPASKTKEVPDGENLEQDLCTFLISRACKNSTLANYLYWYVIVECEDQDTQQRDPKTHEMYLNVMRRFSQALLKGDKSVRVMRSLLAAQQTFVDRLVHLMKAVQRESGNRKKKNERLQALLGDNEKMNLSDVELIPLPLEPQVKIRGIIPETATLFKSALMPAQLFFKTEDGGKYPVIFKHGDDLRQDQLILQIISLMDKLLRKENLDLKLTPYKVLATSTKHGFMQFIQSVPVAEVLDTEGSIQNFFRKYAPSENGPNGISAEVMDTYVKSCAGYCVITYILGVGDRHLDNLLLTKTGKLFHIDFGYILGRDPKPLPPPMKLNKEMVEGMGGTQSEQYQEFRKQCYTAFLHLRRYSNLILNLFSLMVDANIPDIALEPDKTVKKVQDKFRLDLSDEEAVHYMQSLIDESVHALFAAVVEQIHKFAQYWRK
UniProt Q14457: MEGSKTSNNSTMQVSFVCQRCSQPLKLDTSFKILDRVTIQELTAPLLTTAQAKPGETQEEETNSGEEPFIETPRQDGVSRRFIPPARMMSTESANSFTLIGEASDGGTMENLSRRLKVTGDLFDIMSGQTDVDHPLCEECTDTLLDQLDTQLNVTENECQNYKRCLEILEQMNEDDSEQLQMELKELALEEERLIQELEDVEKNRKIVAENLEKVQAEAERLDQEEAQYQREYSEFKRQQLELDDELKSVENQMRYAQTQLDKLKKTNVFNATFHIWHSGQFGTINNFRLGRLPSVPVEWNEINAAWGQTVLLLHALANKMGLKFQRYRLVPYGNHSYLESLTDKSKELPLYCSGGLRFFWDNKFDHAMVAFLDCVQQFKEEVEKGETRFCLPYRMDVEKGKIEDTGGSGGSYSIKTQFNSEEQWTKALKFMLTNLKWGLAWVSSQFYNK
UniProt Q99570: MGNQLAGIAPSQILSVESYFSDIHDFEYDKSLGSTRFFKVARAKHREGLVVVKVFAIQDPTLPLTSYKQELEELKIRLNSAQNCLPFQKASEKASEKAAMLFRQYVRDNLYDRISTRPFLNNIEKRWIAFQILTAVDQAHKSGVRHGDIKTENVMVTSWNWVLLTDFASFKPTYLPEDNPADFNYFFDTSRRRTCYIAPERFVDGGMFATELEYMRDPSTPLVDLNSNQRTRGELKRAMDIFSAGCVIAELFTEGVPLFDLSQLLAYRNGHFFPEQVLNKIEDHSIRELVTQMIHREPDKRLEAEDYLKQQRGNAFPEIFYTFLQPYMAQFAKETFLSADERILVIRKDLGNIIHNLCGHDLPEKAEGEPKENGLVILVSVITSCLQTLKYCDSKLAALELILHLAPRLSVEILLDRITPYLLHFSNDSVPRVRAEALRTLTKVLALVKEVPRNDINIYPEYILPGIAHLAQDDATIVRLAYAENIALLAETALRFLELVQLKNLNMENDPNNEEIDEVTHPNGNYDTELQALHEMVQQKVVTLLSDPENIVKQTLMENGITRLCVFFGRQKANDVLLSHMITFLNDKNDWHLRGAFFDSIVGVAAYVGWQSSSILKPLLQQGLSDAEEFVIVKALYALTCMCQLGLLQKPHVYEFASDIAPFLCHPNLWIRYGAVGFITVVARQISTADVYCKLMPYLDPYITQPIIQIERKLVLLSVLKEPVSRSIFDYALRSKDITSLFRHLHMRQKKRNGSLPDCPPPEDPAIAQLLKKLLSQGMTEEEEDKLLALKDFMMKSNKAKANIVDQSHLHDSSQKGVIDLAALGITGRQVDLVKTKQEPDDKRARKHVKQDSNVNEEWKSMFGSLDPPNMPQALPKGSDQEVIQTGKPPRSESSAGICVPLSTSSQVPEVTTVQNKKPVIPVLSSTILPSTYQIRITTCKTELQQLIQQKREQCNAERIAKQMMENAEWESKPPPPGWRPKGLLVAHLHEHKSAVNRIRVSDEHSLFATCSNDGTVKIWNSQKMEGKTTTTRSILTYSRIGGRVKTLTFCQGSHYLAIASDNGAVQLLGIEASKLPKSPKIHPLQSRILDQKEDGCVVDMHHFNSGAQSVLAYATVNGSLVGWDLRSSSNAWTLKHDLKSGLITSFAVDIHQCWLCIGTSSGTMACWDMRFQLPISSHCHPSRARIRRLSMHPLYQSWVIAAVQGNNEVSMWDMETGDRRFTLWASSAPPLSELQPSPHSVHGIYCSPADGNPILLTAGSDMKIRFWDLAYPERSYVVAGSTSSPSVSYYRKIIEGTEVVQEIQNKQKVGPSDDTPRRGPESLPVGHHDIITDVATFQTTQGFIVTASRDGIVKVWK
UniProt Q562E7: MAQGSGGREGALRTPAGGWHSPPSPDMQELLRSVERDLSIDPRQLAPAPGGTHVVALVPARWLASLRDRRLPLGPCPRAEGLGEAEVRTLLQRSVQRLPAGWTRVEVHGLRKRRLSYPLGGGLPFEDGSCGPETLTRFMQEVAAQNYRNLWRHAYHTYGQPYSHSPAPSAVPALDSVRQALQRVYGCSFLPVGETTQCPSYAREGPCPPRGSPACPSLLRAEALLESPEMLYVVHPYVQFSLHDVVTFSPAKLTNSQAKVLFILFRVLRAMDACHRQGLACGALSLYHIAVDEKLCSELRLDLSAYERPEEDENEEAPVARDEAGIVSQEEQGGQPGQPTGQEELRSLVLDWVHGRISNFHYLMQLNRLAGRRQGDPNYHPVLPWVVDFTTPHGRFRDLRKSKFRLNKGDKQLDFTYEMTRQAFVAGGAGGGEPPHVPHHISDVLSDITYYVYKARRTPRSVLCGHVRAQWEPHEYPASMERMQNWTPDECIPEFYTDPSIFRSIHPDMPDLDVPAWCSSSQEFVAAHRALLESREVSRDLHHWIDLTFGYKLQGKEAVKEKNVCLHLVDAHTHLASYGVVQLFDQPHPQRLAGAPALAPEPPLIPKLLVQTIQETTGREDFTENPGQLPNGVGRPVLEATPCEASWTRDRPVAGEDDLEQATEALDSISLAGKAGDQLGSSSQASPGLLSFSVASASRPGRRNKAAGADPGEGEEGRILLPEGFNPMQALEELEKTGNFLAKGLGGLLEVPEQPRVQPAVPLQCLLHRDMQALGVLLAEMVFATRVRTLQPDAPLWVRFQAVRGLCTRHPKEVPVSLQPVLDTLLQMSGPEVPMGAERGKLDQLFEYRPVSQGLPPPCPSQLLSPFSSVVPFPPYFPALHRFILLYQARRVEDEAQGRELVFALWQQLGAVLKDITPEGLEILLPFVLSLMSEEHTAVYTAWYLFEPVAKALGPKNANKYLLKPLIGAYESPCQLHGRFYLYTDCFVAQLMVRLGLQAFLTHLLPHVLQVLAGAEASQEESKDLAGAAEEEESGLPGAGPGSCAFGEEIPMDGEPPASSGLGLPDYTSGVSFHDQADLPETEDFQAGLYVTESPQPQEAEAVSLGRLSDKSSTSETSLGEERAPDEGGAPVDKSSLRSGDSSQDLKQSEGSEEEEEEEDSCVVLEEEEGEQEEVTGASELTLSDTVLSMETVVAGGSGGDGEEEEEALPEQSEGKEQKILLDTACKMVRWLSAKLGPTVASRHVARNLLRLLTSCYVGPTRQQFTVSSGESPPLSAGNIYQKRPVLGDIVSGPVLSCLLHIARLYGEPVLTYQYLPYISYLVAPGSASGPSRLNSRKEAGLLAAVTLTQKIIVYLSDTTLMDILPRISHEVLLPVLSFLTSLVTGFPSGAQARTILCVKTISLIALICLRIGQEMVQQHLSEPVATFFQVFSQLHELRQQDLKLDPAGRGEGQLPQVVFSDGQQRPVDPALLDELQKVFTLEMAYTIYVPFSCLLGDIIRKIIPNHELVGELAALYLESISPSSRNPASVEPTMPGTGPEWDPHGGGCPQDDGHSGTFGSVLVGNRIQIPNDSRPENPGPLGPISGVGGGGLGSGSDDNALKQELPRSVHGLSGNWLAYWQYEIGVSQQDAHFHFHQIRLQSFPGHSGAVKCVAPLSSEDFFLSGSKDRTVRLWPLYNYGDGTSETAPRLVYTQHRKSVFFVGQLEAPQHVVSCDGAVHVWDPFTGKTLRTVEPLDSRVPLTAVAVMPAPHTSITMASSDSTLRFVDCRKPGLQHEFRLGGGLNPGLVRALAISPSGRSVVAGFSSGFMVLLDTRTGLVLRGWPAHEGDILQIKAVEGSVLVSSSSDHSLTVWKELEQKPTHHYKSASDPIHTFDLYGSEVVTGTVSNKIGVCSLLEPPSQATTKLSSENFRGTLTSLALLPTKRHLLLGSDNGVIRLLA

These are yes or no findings as the source states them, for the method shown. In cells and extracts the contact can be indirect. Some binding calls cover weakened binding; strength is not graded here.

The target in one experiment is GFP-VPS34 (UniProt Q8NEB9). Briefly: co-IP; expression vectors co-transfected into HEK293 cells, lysed after 48 h in IP buffer (20 mM Tris-HCl pH 7.5, 100 mM NaCl, 1% NP40, 1 mM PMSF, 1% glycerol); FLAG (M2) or HA antibody beads overnight at 4 °C; blot.
For the next experiment, the target named is HA-Beclin1 (UniProt Q14457). The description is as above.
For a further experiment, the target named is V5-VPS15 (UniProt Q99570). The description is as above.
The target in experiment [1] is WDR81 (as in the co-IP with SARA, Fig. S13d) (UniProt Q562E7). The experiment can be described thus: co-IP; co-IP of SARA and WDR81 (Fig. S13d); cells and constructs not given.

For the molecule FLAG-WDR81 (from UniProt Q562E7 1-1941), the binding result was “no binding” with GFP-VPS34, “binds” with HA-Beclin1 and “binds” in the experiment with V5-VPS15.

B1: SARA (SMAD anchor for receptor activation) (protein, UniProt O95405 1-1425)
chain: MENYFQAEAYNLDKVLDEFEQNEDETVSSTLLDTKWNKILDPPSHRLSFNPTLASVNESAVSNESQPQLKVFSLAHSAPLTTEEEDHCANGQDCNLNPEIATMWIDENAVAEDQLIKRNYSWDDQCSAVEVGEKKCGNLACLPDEKNVLVVAVMHNCDKRTLQNDLQDCNNYNSQSLMDAFSCSLDNENRQTDQFSFSINESTEKDMNSEKQMDPLNRPKTEGRSVNHLCPTSSDSLASVCSPSQLKDDGSIGRDPSMSAITSLTVDSVISSQGTDGCPAVKKQENYIPDEDLTGKISSPRTDLGSPNSFSHMSEGILMKKEPAEESTTEESLRSGLPLLLKPDMPNGSGRNNDCERCSDCLVPNEVRADENEGYEHEETLGTTEFLNMTEHFSESQDMTNWKLTKLNEMNDSQVNEEKEKFLQISQPEDTNGDSGGQCVGLADAGLDLKGTCISESEECDFSTVIDTPAANYLSNGCDSYGMQDPGVSFVPKTLPSKEDSVTEEKEIEESKSECYSNIYEQRGNEATEGSGLLLNSTGDLMKKNYLHNFCSQVPSVLGQSSPKVVASLPSISVPFGGARPKQPSNLKLQIPKPLSDHLQNDFPANSGNNTKNKNDILGKAKLGENSATNVCSPSLGNISNVDTNGEHLESYEAEISTRPCLALAPDSPDNDLRAGQFGISARKPFTTLGEVAPVWVPDSQAPNCMKCEARFTFTKRRHHCRACGKVFCASCCSLKCKLLYMDRKEARVCVICHSVLMNAQAWENMMSASSQSPNPNNPAEYCSTIPPLQQAQASGALSSPPPTVMVPVGVLKHPGAEVAQPREQRRVWFADGILPNGEVADAAKLTMNGTSSAGTLAVSHDPVKPVTTSPLPAETDICLFSGSITQVGSPVGSAMNLIPEDGLPPILISTGVKGDYAVEEKPSQISVMQQLEDGGPDPLVFVLNANLLSMVKIVNYVNRKCWCFTTKGMHAVGQSEIVILLQCLPDEKCLPKDIFNHFVQLYRDALAGNVVSNLGHSFFSQSFLGSKEHGGFLYVTSTYQSLQDLVLPTPPYLFGILIQKWETPWAKVFPIRLMLRLGAEYRLYPCPLFSVRFRKPLFGETGHTIMNLLADFRNYQYTLPVVQGLVVDMEVRKTSIKIPSNRYNEMMKAMNKSNEHVLAGGACFNEKADSHLVCVQNDDGNYQTQAISIHNQPRKVTGASFFVFSGALKSSSGYLAKSSIVEDGVMVQITAENMDSLRQALREMKDFTITCGKADAEEPQEHIHIQWVDDDKNVSKGVVSPIDGKSMETITNVKIFHGSEYKANGKVIRWTEVFFLENDDQHNCLSDPADHSRLTEHVAKAFCLALCPHLKLLKEDGMTKLGLRVTLDSDQVGYQAGSNGQPLPSQYMNDLDSALVPVIHGGACQLSEGPVVMELIFYILENIV
Take B1: the binding entry in experiment [1] was “no binding”.
